Consider one sequence from PMC10403730, “PABPN1 aggregation is driven by Ala expansion and poly(A)-RNA binding, leading to CFIm25 sequestration that impairs alternative polyadenylation”.

A weaker result is weaker than the reference pair of the same experiment. For some assays here: Tags and fusion partners may be left off the protein sequences shown. For some assays here: For at least one entry, the source does not settle the construct or the ends of the probe.

For series [1], the target named is EGFP-PABPN1-17A-ΔCT N-terminal,A,stretch,expanded,from,10,to,17 (Homo sapiens) (UniProt Q86U42). Briefly: EMSA. The settings on record: 2 nM dA50, weaker than 10A-ΔCT; 50 mM Tris-HCl, 150 mM NaCl, 2 mM MgCl2, pH 7.5, 30 min at room temperature; 6% native gel; recombinant protein; residues 1-254; protein details: N-terminal EGFP, C-terminal His; label: 5'-Cy5; single-stranded DNA. (Mobility shift assays separate free from complexed probe on a gel.)

Series [2] deals with T1, EGFP-PABPN1-10A-RRMMut-ΔCT F215A,Y217A (Homo sapiens) (UniProt Q86U42).
T1 sequence (looked up): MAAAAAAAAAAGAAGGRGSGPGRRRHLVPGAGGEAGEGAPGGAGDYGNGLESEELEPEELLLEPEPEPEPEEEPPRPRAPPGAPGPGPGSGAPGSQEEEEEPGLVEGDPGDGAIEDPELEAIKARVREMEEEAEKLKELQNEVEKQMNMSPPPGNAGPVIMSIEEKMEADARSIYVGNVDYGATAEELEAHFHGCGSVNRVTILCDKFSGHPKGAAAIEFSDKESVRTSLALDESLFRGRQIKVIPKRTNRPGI
Briefly: EMSA. The settings on record: 2 nM dA50, 0-5 uM protein, RRM mutation weakened association considerably; 50 mM Tris-HCl, 150 mM NaCl, 2 mM MgCl2, pH 7.5, 30 min at room temperature; 6% native gel; recombinant protein; residues 1-254; protein details: N-terminal EGFP, C-terminal His; label: 5'-Cy5; single-stranded DNA.

For “AAAAAAAAAAAAAAAAAAAAAAAAAAAAAAAAAAAAAAAAAAAAAAAAAA [Cy5-dA50]”, the binding result in series [1] and in series [2] was “binds more weakly” throughout.
